Results deposited as PubChem BioAssay AID1224830 (NIAID, 2016).

Aim: 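Regulators of TLR4 signalling towards TNF-alpha in macrophage-like cells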 (primary screen)
Cells: human THP-1 monocytic leukaemia cells, TNF dual-luciferase reporter clone, PMA-differentiated to macrophage-like cells
Reagent: siRNA pool against human genes, 50 nM
Timing: LPS for 4 h, given about 3 days after siRNA transfection
Conditions: bacterial LPS (TLR4 ligand), 10 ng/ml
Measured: 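Ratio of firefly to renilla light, scaled to the plate median and expressed as a robust z-score per replicate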
Scale: TNF reporter robust z-score: higher = stronger TNF reporter response to LPS
Call rule: 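a well is active when its z-score exceeds 2.8 or falls below -1.5; control wells carry no call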
Here is an unselected part of about 18,000 deposited reagents. Of all reagents, about 2,900 (16%) got an active call. 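Calls are made per well; low scores hint the gene aids the LPS response, high scores that it dampens it.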 Repeated entries: four replicate wells of each siRNA pool.

RRH (retinal pigment epithelium-derived rhodopsin homolog) gave TNF reporter robust z-score -1.26; inactive.
Silencing of RRH (retinal pigment epithelium-derived rhodopsin homolog) gave: TNF reporter robust z-score -0.38; inactive.
For RRH (retinal pigment epithelium-derived rhodopsin homolog), the entry reads TNF reporter robust z-score -0.99; inactive.
Silencing of RRH (retinal pigment epithelium-derived rhodopsin homolog) came out at: TNF reporter robust z-score -0.72; inactive.
Against CELF5 (CUGBP Elav-like family member 5) the deposit lists TNF reporter robust z-score -0.08; inactive.
After knock-down of CELF5 (CUGBP Elav-like family member 5), the screen gave TNF reporter robust z-score 0.74; inactive.
Knock-down of CELF5 (CUGBP Elav-like family member 5) resulted in: TNF reporter robust z-score 1.65; inactive.
Against CELF5 (CUGBP Elav-like family member 5), the values are TNF reporter robust z-score -0.04; inactive.
Depletion of LIMK2 (LIM domain kinase 2) came out at: TNF reporter robust z-score -0.27; inactive.
With knock-down of LIMK2 (LIM domain kinase 2) the results were TNF reporter robust z-score -0.73; inactive.
For LIMK2 (LIM domain kinase 2), the values are TNF reporter robust z-score -0.59; inactive.
Against LIMK2 (LIM domain kinase 2), the values are TNF reporter robust z-score 0.59; inactive.
For DNASE2 (deoxyribonuclease 2, lysosomal), the values are TNF reporter robust z-score -0.2; inactive.
Against DNASE2 (deoxyribonuclease 2, lysosomal), the entry reads TNF reporter robust z-score 0.52; inactive.
DNASE2 (deoxyribonuclease 2, lysosomal) showed TNF reporter robust z-score 0.99; inactive.
For DNASE2 (deoxyribonuclease 2, lysosomal), the values are TNF reporter robust z-score 1.54; inactive.
TTLL6 (tubulin tyrosine ligase like 6) showed TNF reporter robust z-score -0.11; inactive.
TTLL6 (tubulin tyrosine ligase like 6) scored TNF reporter robust z-score -0.98; inactive.
TTLL6 (tubulin tyrosine ligase like 6) gave TNF reporter robust z-score -0.15; inactive.
TTLL6 (tubulin tyrosine ligase like 6) showed TNF reporter robust z-score 0.79; inactive.
After knock-down of CTSO (cathepsin O), the screen gave TNF reporter robust z-score 2.21; inactive.
For CTSO (cathepsin O) the deposit lists TNF reporter robust z-score -0.71; inactive.
CTSO (cathepsin O) showed TNF reporter robust z-score 0.75; inactive.
After knock-down of CTSO (cathepsin O), the record shows TNF reporter robust z-score 0.62; inactive.
After knock-down of SNRPA1 (small nuclear ribonucleoprotein polypeptide A'), the screen gave TNF reporter robust z-score -0.66; inactive.
Depletion of SNRPA1 (small nuclear ribonucleoprotein polypeptide A') gave: TNF reporter robust z-score -0.51; inactive.
With knock-down of SNRPA1 (small nuclear ribonucleoprotein polypeptide A') the results were TNF reporter robust z-score -0.12; inactive.
For SNRPA1 (small nuclear ribonucleoprotein polypeptide A'), the entry reads TNF reporter robust z-score 0.96; inactive.
After knock-down of ACCSL, the record shows TNF reporter robust z-score -0.44; inactive.
Knock-down of ACCSL resulted in: TNF reporter robust z-score 0.64; inactive.
ACCSL showed TNF reporter robust z-score 0.35; inactive.
After knock-down of ACCSL, the screen gave TNF reporter robust z-score 0.24; inactive.

The list goes on.
After knock-down of TCEAL3 (transcription elongation factor A like 3), the screen gave TNF reporter robust z-score -0.29; inactive.
TCEAL3 (transcription elongation factor A like 3) gave TNF reporter robust z-score -0.67; inactive.
TCEAL3 (transcription elongation factor A like 3) gave TNF reporter robust z-score 0.01; inactive.
With knock-down of TCEAL3 (transcription elongation factor A like 3), the record shows TNF reporter robust z-score 0.08; inactive.
Depletion of CRIPTO (cripto, EGF-CFC family member) came out at: TNF reporter robust z-score -0.95; inactive.
Against CRIPTO (cripto, EGF-CFC family member) the deposit lists TNF reporter robust z-score -0.24; inactive.
With knock-down of CRIPTO (cripto, EGF-CFC family member), the screen gave TNF reporter robust z-score -0.64; inactive.
CRIPTO (cripto, EGF-CFC family member) scored TNF reporter robust z-score 0.56; inactive.
After knock-down of MARCHF6 (membrane associated ring-CH-type finger 6), the screen gave TNF reporter robust z-score -0.98; inactive.
MARCHF6 (membrane associated ring-CH-type finger 6) scored TNF reporter robust z-score 0.02; inactive.
MARCHF6 (membrane associated ring-CH-type finger 6) showed TNF reporter robust z-score -0.04; inactive.
MARCHF6 (membrane associated ring-CH-type finger 6) showed TNF reporter robust z-score 2.21; inactive.
After knock-down of NDUFV2 (NADH:ubiquinone oxidoreductase core subunit V2), the screen gave TNF reporter robust z-score -0.99; inactive.
NDUFV2 (NADH:ubiquinone oxidoreductase core subunit V2) scored TNF reporter robust z-score -1.11; inactive.
Depletion of NDUFV2 (NADH:ubiquinone oxidoreductase core subunit V2) resulted in: TNF reporter robust z-score -1.25; inactive.
After knock-down of NDUFV2 (NADH:ubiquinone oxidoreductase core subunit V2), the screen gave TNF reporter robust z-score -1.03; inactive.
